Data reported in the supplement of paper PMC12823440, “Inhibitors supercharge kinase turnover through native proteolytic circuits” (Nature, 2025).
Structures can show the parent of a compound that is named as a salt. This is one part of the list. The calls rarely recur for the same compound in another form.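 In K562 cells expressing nanoluciferase-fused kinases, luminescence was recorded at 4 h intervals between 2 and 18 h, normalized as percent of control with DMSO at 100% and a positive control at 0%. A significant (2 sigma) signal drop marks a time point as decreased. The authors' rule for a hit is not shown and takes in more than the number of time points.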

Amino acid sequences for entries named in this document (tags omitted).
UniProt P50750, whole entry: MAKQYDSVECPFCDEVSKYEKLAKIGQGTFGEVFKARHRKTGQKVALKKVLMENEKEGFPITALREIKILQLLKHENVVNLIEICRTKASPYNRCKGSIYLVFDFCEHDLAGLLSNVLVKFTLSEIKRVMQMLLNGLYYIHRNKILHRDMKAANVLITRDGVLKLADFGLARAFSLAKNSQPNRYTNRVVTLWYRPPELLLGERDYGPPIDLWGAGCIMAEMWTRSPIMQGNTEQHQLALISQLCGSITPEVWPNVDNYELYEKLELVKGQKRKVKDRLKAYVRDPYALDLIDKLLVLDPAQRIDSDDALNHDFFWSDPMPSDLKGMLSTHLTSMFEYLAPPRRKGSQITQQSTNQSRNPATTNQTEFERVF

target: CDK9 (UniProt P50750); assay: kinase-Nluc reporter destabilization hit call (1 = scored as downregulated) (binary); higher = compound decreases kinase abundance; settings: 2.5 µM; K562; 2-18 h

kinase-Nluc reporter destabilization hit call, inactive:
C=CC(=O)N1CCC[C@@H](n2nc(-c3ccc(Oc4ccccc4)cc3)c3c(N)ncnc32)C1 [Ibrutinib] 0
Cc1cn(-c2cc(NC(=O)c3ccc(C)c(Nc4nccc(-c5cccnc5)n4)c3)cc(C(F)(F)F)c2)cn1 [Nilotinib] 0
Cc1cc(C)n2c1C=C1C=CC(CCC(=O)NCCN3CCN(C/C=C/C(=O)N4CCCC(n5nc(-c6ccc(Oc7ccccc7)cc6)c6c(N)ncnc65)C4)CC3)=[N+]1[B-]2(F)F (configuration not stated) 0
Cc1cnc(Nc2ccc(OCCN3CCCC3)cc2)nc1Nc1cccc(S(=O)(=O)NC(C)(C)C)c1 [Fedratinib (hydrochloride hydrate)] 0
C=CC(=O)Nc1cc2c(Nc3ccc(F)c(Cl)c3)ncnc2cc1OCCCN1CCOCC1 [Canertinib (dihydrochloride)] 0
O=C(Nc1cccc(Nc2nccc(Nc3cccc(C(F)(F)F)c3)n2)c1)C1CC1 [Aurora kinase inhibitor-3] 0
COc1ccc(-c2cc3nccn3c(Nc3ncccc3C(N)=O)n2)cc1OC [BAY 61-3606 (dihydrochloride)] 0
Nc1nc(Nc2ccc(S(N)(=O)=O)cc2)nn1C(=O)c1c(F)cccc1F 0
COc1cc(N2CCC(N3CCN(C)CC3)CC2)ccc1Nc1ncc(Cl)c(Nc2ccccc2S(=O)(=O)C(C)C)n1 0
COc1cc(Nc2c(C#N)cnc3cc(OCCCN4CCN(C)CC4)c(OC)cc23)c(Cl)cc1Cl [Bosutinib] 0
CCc1cc2c(cc1-c1cnn(CC(=O)N(C)C)c1)C(C)(C)c1[nH]c3cc(C#N)ccc3c1C2=O 0
Cc1cnc(Nc2ccc(OCCN3CCCC3)cc2)nc1Nc1cccc(S(=O)(=O)NC(C)(C)C)c1 [Fedratinib] 0
Cc1cc(Nc2cc(N3CCN(C)CC3)nc(/C=C/c3ccccc3)n2)n[nH]1 [ENMD-2076 (Tartrate)] 0
Cc1cc(Nc2cc(N3CCN(C)CC3)nc(/C=C/c3ccccc3)n2)n[nH]1 0

same assay, conditions: 10 µM; K562; 2-18 h

kinase-Nluc reporter destabilization hit call, inactive:
C=CC(=O)N1CCC([C@@H]2CCNc3c(C(N)=O)c(-c4ccc(Oc5ccccc5)cc4)nn32)CC1 [Zanubrutinib] 0
CCn1c(=O)c(-c2cc(NC(=O)Nc3ccccc3)c(F)cc2Br)cc2cnc(NC)cc21 [Ripretinib] 0
COc1cc(N2CCN(C)CC2)ccc1Nc1nccc(-c2cn(C)c3cnccc23)n1 0
Fc1ccc(-c2nc(-c3ccc4ccccc4c3F)[nH]c2-c2ccncc2)cc1 0
C=CC(=O)N(C)CCOc1c(N)ncnc1-c1cc(F)cc(NC(=O)c2ccc(C3CC3)cc2F)c1C [Remibrutinib] 0
NCCNc1ncc(C(N)=O)c(Nc2cccc(C(F)(F)F)c2)n1 [Syk Inhibitor II] 0
C[C@@H]1O[C@@H](Oc2c(-c3ccc(O)c(O)c3)oc3cc(O)cc(O)c3c2=O)[C@H](O)[C@H](O)[C@H]1O [Quercitrin] 0
CCCOc1ccc(C=C2SC(=O)NC2=O)cc1 0
Cc1cc2c(F)c(Oc3ncnn4cc(OC[C@@H](C)O)c(C)c34)ccc2[nH]1 [Brivanib] 0
CC(C)[C@@](C)(O)[C@@H]1CN(c2nc(-c3[nH]nc4ncccc34)c(F)cc2Cl)CCN1 0
CCCCCCCCCCCCc1ccc(S(=O)(=O)Nc2nncs2)cc1 0
CC#CC(=O)N1CCC[C@H]1c1nc(-c2ccc(C(=O)Nc3ccccn3)cc2)c2c(N)nccn12 [Acalabrutinib] 0
CC(C)N(CCC(=O)c1ccc2ccccc2c1)Cc1ccccc1 0
C=CC(=O)N1C[C@@H](Nc2ncnc3[nH]ccc23)CC[C@H]1C [(2R,5S)-Ritlecitinib] 0
COc1ccc(-c2cc(C(=O)NN=C(C)c3ccc(OC)c(OC)c3)[nH]n2)cc1 0
Cn1cc(/C=C2\C(=O)Nc3cccnc32)c2ccccc21 0
Cc1ccc2c(=O)c3cccc(CC(=O)O)c3oc2c1C [Vadimezan] 0
C[C@@H]1CN(C(=O)Nc2ccc(-c3nc(N4CCOCC4)c4cnn(CCCCCCC(=O)NO)c4n3)cc2)CCO1 [HDACs/mTOR Inhibitor 1] 0

9 entries already listed, ordered by number of heavy atoms, largest number first:
kinase-Nluc reporter destabilization hit call, inactive:
C[C@@H]1CN(C(=O)Nc2ccc(-c3nc(N4CCOCC4)c4cnn(CCCCCCC(=O)NO)c4n3)cc2)CCO1 [HDACs/mTOR Inhibitor 1] 0
C=CC(=O)N1CCC([C@@H]2CCNc3c(C(N)=O)c(-c4ccc(Oc5ccccc5)cc4)nn32)CC1 [Zanubrutinib] 0
CCn1c(=O)c(-c2cc(NC(=O)Nc3ccccc3)c(F)cc2Br)cc2cnc(NC)cc21 [Ripretinib] 0
C[C@@H]1O[C@@H](Oc2c(-c3ccc(O)c(O)c3)oc3cc(O)cc(O)c3c2=O)[C@H](O)[C@H](O)[C@H]1O [Quercitrin] 0
COc1ccc(-c2cc(C(=O)NN=C(C)c3ccc(OC)c(OC)c3)[nH]n2)cc1 0
Cc1cc2c(F)c(Oc3ncnn4cc(OC[C@@H](C)O)c(C)c34)ccc2[nH]1 [Brivanib] 0
CC(C)N(CCC(=O)c1ccc2ccccc2c1)Cc1ccccc1 0
C=CC(=O)N1C[C@@H](Nc2ncnc3[nH]ccc23)CC[C@H]1C [(2R,5S)-Ritlecitinib] 0
CCCOc1ccc(C=C2SC(=O)NC2=O)cc1 0
